The exact form of at least one protein or probe is not confirmed. For some assays here: A weaker result is weaker than the reference pair of the same experiment. For some assays here: At least one verdict was read from the data and is not stated in words by the source.
Key:
[1] = tested on: RPA G78E (Rfa1G78E-Rfa2-Rfa3) (Schizosaccharomyces pombe); assay: EMSA; conditions: 100 nM DNA; EMSA: CL buffer (composition not given), 32 C 15 min, gels in TAE at 20 C; recombinant protein; protein details: 6xHis N-terminal on Rfa1; label: 5'-TAMRA; single-stranded DNA
[2] = tested on: RPA (Rfa1-Rfa2-Rfa3) (Schizosaccharomyces pombe); assay: EMSA; conditions: 100 nM DNA; EMSA: CL buffer (composition not given), 32 C 15 min, gels in TAE at 20 C; recombinant protein; protein details: 6xHis N-terminal on Rfa1; label: 5'-TAMRA; single-stranded DNA

Chains of the proteins cited; added tags and fusions are not shown. A line that says so, or that is headed by a name, gives the form on record, which may keep a tag or linker.
RPA G78E (Rfa1G78E-Rfa2-Rfa3) (Schizosaccharomyces pombe), one chain, as listed by the source G78E, chain 1 of 3: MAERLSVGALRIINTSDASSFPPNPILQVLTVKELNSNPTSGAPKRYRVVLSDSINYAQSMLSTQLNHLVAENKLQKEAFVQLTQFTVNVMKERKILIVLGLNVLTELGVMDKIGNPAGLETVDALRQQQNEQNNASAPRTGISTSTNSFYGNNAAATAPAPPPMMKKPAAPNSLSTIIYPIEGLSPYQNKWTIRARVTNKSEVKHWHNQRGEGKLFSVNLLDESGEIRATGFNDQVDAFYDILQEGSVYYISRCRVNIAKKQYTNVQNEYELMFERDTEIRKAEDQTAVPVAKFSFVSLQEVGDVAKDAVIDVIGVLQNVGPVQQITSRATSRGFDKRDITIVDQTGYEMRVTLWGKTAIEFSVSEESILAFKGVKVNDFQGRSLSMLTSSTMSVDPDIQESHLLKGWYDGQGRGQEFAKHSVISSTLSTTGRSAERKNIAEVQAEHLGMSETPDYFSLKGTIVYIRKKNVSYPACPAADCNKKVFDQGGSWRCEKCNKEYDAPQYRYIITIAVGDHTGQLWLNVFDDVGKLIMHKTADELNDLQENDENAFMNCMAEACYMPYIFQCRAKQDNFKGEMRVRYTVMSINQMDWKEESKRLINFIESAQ
RPA (Rfa1-Rfa2-Rfa3) (Schizosaccharomyces pombe), one chain, as listed by the source, chain 1 of 3: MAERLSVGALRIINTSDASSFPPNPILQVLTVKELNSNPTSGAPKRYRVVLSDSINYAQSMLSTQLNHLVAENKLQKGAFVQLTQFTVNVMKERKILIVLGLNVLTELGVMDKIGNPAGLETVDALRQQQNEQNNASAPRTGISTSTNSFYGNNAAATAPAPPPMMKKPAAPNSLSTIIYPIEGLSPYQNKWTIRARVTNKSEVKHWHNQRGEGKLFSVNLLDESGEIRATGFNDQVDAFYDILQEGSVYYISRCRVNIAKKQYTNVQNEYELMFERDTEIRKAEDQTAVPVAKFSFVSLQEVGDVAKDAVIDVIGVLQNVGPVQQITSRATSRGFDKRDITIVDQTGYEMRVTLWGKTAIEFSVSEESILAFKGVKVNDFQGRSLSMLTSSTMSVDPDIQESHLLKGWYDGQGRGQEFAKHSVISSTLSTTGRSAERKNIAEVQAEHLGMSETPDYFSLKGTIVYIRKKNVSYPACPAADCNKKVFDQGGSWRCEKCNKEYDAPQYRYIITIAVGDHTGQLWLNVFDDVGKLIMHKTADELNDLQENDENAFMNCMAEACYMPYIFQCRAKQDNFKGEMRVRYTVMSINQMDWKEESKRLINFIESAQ

TTTTTTTTTTTTTTTTTTTTTTTTTTTTTTTTTTTTTTTTTTTTTTTTTTTTTT [oligo(dT)54]
binding result [1]: binds more weakly
binding result [2]: binds

— PMC5786502
